In all, about 78,000 compounds went through this assay and about 1,800 (2.3%) were called active. Inconclusive means that the source gave no clear call. Such entries were picked first, then a sample of the others. Cut-off read from the data, not from the text of the source: active = inhibition above about 30%; inconclusive = mostly about 10% to 28%; inactive = weaker than that.
The compounds below were run against Interleukin-1 receptor-like 1 (Homo sapiens) (UniProt Q01638) (assay: blocks human ST2 binding to IL-33, primary screen, biochemical, AlphaLISA (AID 1259354)). Settings: AlphaLISA ST2-Fc/biotin-IL-33 interaction, 1 h; at 17 µM, active compounds read high.

Amino acid sequences for entries named in this document (tags omitted). A change or cut given only in a name is not applied to a line headed by its entry.
UniProt Q01638: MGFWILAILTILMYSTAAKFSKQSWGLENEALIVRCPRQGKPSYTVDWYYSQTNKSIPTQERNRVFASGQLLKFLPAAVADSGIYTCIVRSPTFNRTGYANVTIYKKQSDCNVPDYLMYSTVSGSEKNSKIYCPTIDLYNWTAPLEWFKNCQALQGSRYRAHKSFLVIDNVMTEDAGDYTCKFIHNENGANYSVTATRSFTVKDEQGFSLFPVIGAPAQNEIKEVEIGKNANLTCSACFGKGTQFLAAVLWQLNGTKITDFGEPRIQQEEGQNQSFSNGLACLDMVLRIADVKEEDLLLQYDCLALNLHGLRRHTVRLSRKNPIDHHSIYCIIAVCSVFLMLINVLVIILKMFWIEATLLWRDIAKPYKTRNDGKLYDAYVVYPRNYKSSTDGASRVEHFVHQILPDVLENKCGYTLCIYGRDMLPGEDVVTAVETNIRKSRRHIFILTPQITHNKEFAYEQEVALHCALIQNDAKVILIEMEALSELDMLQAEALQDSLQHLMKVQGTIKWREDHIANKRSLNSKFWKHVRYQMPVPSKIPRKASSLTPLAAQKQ

SMILES	inhibition
COC(=O)C(CCSC)NS(=O)(=O)c1ccc(Cl)cc1 (stereo not drawn)	inconclusive: 17%
CCC1(C)Cc2c(sc3nc(SC)n4c(SCc5ccccc5)nnc4c23)CO1 (stereo not drawn)	inconclusive: 12%
CCc1ccc(NC(=O)C2c3cc(OC)c(OC)cc3C(=O)N(C)C2c2ccc(OC)cc2)cc1 (stereo not drawn)	inconclusive: 22%
COc1cccc(OCCCCOc2cccc(OC)c2)c1	inactive
CN1C(=O)C(O)(CC(=O)c2cccc([N+](=O)[O-])c2)c2ccccc21 (stereo not drawn)	inactive
Cc1nccn1CCC1CCN(C2CCC3(CCNCC3)CC2)CC1	inconclusive: 18%
COc1ccc(CSc2nc3sc4c(c3c(=O)n2-c2ccccc2)CCN(C)C4)cc1	inconclusive: 17%
Cc1ccccc1N1CCN(Cc2ccc(S(C)(=O)=O)cc2)C(C)C1 (stereo not drawn)	inconclusive: 14%
Cc1ccc(Nc2cc(C)nc(Nc3ccc(NC(=O)c4ccc(C)c(C)c4)cc3)n2)cc1	inconclusive: 16%
C=CCSc1nc(O)c(C(c2ccccc2)c2ccccc2)c(=O)[nH]1	inconclusive: 11%
CCOC(=O)C1=C(Nc2ccccc2)CC(C)(O)C(C(=O)OCC)C1c1ccc(F)cc1 (stereo not drawn)	inconclusive: 10%
Cc1nccc(N2CCC(Cc3n[nH]c(=O)n3-c3ccccc3)CC2)n1	inconclusive: 19%
CC1=C(C(=O)N(CC2CCN(Cc3ccccc3C)CC2)CC2CCCO2)OCCO1 (stereo not drawn)	inconclusive: 10%
CCOc1ccc(CSc2nc(C)cc(COC)c2C#N)cc1OCC	inconclusive: 10%
CC(C)NC(=O)C1CCC(Cn2c(=O)c3sccc3n(CC(=O)NC3CCCCC3)c2=O)CC1 (stereo not drawn)	inconclusive: 10%
Cc1c(C)n(Cc2ccccc2)c2ccc(C(=O)NCCN(C)C)cc12	inconclusive: 12%
COc1cc2c(C(=O)N3CCOCC3)cn(C)c(=O)c2cc1OC	inconclusive: 10%
C[C@H]1[C@H]2C[C@H](C(C(Nc3ccccc3)c3ccccc3)C2=O)C1(C)C (stereo partly drawn)	inconclusive: 12%
COc1ccc(NC(=O)Cc2cc(C)no2)c(NC(=O)C(C)C)c1	inconclusive: 24%
Cc1[nH]c2ccccc2c1SCCNC(=O)c1ccc2c(c1)OCO2	inactive
CC(CNCC1CCCO1)COc1ccccc1F (stereo not drawn)	inactive
Cc1nnsc1CN(C)Cc1cn[nH]c1C(=O)O	inconclusive: 13%
COc1ccccc1-n1c(SCC(=O)Nc2ccccc2F)nc2c(c1=O)SCC2	inconclusive: 24%
COc1cccc(Cn2c(CNC(=O)c3ccccc3Br)nc3cccnc32)c1	inactive

SMILES	inhibition
COc1cc2c(cc1OC)CN(C(=O)c1cn(CCCc3ccccc3)nn1)CC2	inactive
CNC(=O)c1ccc(OC)c(-c2ccccc2OC(F)(F)F)c1	inconclusive: 13%
Cc1ccc(Cn2c(CCNC(=O)Nc3ccc(Br)cc3F)nc3cccnc32)cc1	inconclusive: 12%
C=C1C(=O)OC2/C=C(\C)CC3C=C(CC/C=C(\C)CCC12)C(=O)O3 (stereo not drawn)	inconclusive: 10%
COc1ccc2[nH]c3c(c2c1)CCn1c-3nc2sc3c(c2c1=N)CCCC3	active: 34%
CC(=O)c1cccc(Nc2cc(C)nc3ccc(Cl)cc23)c1	inconclusive: 19%
CCc1ccccc1OCCN(C)C(=O)c1ccc2nccn2c1	inconclusive: 10%
CCOc1ccc(-n2c(C)nc3c(cnn3-c3ccc(Cl)cc3)c2=O)cc1	inconclusive: 11%
Cc1ccccc1NC(=O)CC(=O)N[C@H](C)c1ccccc1	inconclusive: 13%
COc1ccccc1Nc1nc(-c2ccc(F)cc2)cs1	inactive
O=c1oc2ccccc2c(O)c1-c1c[nH]c2ccccc12	inactive
CCSc1ncc(-c2c(-c3ccccc3)ncn2Cc2cccnc2)cn1	inconclusive: 13%
COc1ccc(C2=Nn3c(C)nnc3SC2)cc1	inconclusive: 22%
Cn1ccnc1CN1CCCC(CCNC(=O)C(C)(C)C)C1 (stereo not drawn)	inconclusive: 18%
CCCc1nnc(NC(=O)CN2CCC(Oc3ncccn3)CC2)s1	inconclusive: 11%
CC(C)Cc1nc(CC2C=CS(=O)(=O)C2)n(-c2ccc3c(c2)OCO3)n1 (stereo not drawn)	inconclusive: 21%
CCc1ccc(NC(=O)CSc2nc3c(c(=O)n2-c2ccc(C)cc2)SCC3)cc1	inconclusive: 19%
COc1ccc(S(=O)(=O)N=C2C=C(Br)C(=O)c3ccccc32)cc1	inconclusive: 23%
COC(=O)c1c(NC(=O)C2CC2c2ccccc2)sc2c1CCCC2 (stereo not drawn)	inactive
COc1ccc(OC)c(S(=O)(=O)Nc2nc3c(s2)C[C@]2(C)CCC([C@H](C)C(=O)N(C)Cc4ccccc4)[C@H](O)[C@H]2[C@@H]3C)c1 (stereo partly drawn)	inactive
CCN(CC)C(=O)c1cc2cc3ccc(C)cc3nc2s1	inconclusive: 23%
O=C(CN1CCN(Cc2ccc(Cl)cc2)C1=O)NC1CCCCC1	inactive
CC(C)(C)c1ccc(NC(=O)CSc2nnc3sc4ccccc4n23)cc1	inactive
N#CC1(c2ccccc2)CCc2c(sc3ncnc(N4CCCC4)c23)C1 (stereo not drawn)	inconclusive: 20%

5 successive entries out of the list so far, for reference:
SMILES	inhibition
CCOC(=O)C1=C(Nc2ccccc2)CC(C)(O)C(C(=O)OCC)C1c1ccc(F)cc1 (stereo not drawn)	inconclusive: 10%
Cc1nccc(N2CCC(Cc3n[nH]c(=O)n3-c3ccccc3)CC2)n1	inconclusive: 19%
CC1=C(C(=O)N(CC2CCN(Cc3ccccc3C)CC2)CC2CCCO2)OCCO1 (stereo not drawn)	inconclusive: 10%
CCOc1ccc(CSc2nc(C)cc(COC)c2C#N)cc1OCC	inconclusive: 10%
CC(C)NC(=O)C1CCC(Cn2c(=O)c3sccc3n(CC(=O)NC3CCCCC3)c2=O)CC1 (stereo not drawn)	inconclusive: 10%

Following part

SMILES	inhibition
COc1cccc(N2CC(NC(=O)C3CCCC3)CC2=O)c1 (stereo not drawn)	inconclusive: 15%
CCOc1ccc(C2CC(=O)N3CN(c4ccc(F)cc4)CSC3=C2C#N)cc1OC (stereo not drawn)	inconclusive: 15%
COc1ccc(C2C(C(C)=O)=C(C)Nc3ncnn32)c(OC)c1OC (stereo not drawn)	inactive
O=C1C[C@H]2CC[C@@H](CN1)N2C(=O)Cc1ccsc1	inactive
Cc1cc(C(F)(F)F)nc(CCNC(=O)[C@H](N)CC(C)C)n1	inconclusive: 10%
COc1cc(-c2cc(=O)c3ccccc3o2)ccc1O	inactive
O=[N+]([O-])c1ccc(N=Cc2cc(Br)cc(I)c2O)cc1	inactive
C=CCSc1nnc2c(n1)OC(c1cccs1)N(C(C)=O)c1ccccc1-2 (stereo not drawn)	inconclusive: 18%
COc1ccc(OC)c(C2CC(c3ccc(C)cc3)=NN2S(=O)(=O)c2ccccc2)c1 (stereo not drawn)	inconclusive: 26%
CC(=O)Nc1ccc(-c2ccc(=O)n3c2[C@@H]2C[C@@H](CN(S(=O)(=O)c4ccc(F)cc4)C2)C3)cc1	inconclusive: 14%
CCOc1ccc(C2CC(=O)C3=C(C2)Nc2ccccc2NC3c2ccccc2Cl)cc1OC (stereo not drawn)	inconclusive: 28%
CCOc1nc(SCCOc2ccc(C)cc2)nc(N(C)C)n1	inconclusive: 14%
CCOc1ncccc1-c1cnn(CC(=O)NC)c1	inactive
CCNC(=O)C1CCN(c2cc(C)nc(-c3cccnc3)n2)C1 (stereo not drawn)	inconclusive: 14%
CCOC(=O)c1c(NC(=O)c2cc(C)on2)sc(C(C)=O)c1C	inactive
CN1CCC(N2C[C@H](O)C[C@H]2c2nc(Cc3ccccc3)no2)CC1	inconclusive: 25%
C#Cc1ccc2c(c1)C(=O)N(C)Cc1c(C(=O)OCCCOC(=O)c3ncn4c3CN(C)C(=O)c3cc(C#C)ccc3-4)ncn1-2	inconclusive: 21%
Cc1ccc(Cn2c(CCNC(=O)Nc3cccc(Cl)c3C)nc3cccnc32)cc1	inconclusive: 26%
CCC1CCCCN1C(=O)c1cn(C)c(=O)c2cc(OC)c(OC)cc12 (stereo not drawn)	inconclusive: 18%
COc1ccc(CN2CCN(Cc3cc(OC)c(OC)c(OC)c3)CC2)cc1OC	inconclusive: 20%
COc1ccc(S(=O)(=O)CC(SC#N)c2ccccc2)cc1 (stereo not drawn)	inconclusive: 23%
O=C(CN1C(=O)C2CCCCN2C(=O)c2ccccc21)N1CCCCCC1 (stereo not drawn)	inconclusive: 12%
O=C(CC1COCCN1)N1CCN(Cc2ccccn2)CC1 (stereo not drawn)	inconclusive: 16%
COc1ccc(CN2CC[C@H](c3nc4ncccc4[nH]3)C2)cc1	inactive

SMILES	inhibition
N#Cc1c2c(c(NCc3ccco3)n3c1nc1ccccc13)CCC2	inconclusive: 20%
N#Cc1ccc(-c2ccncc2)nc1SCc1ccc(F)cc1	active: 34%
CCCc1cnc(C)nc1N1CCC2(CCC(=O)N(C)CC2)CC1	inconclusive: 12%
COc1ccc(F)c(-c2cc(NCCO)nc(N)n2)c1	inconclusive: 11%
CCN(Cc1ccncc1)C(=O)CCn1c(C)cc(C)nc1=O	inconclusive: 24%
CCCS(=O)(=O)N1C[C@@H]2C[C@H](C1)c1ccc(-c3ccccc3CN3CCOCC3)c(=O)n1C2	inconclusive: 14%
O=C(COc1ccc(Br)cc1)Nc1ccc(-c2nc3ncccc3o2)cc1	active: 33%
O=C(c1ccc2nc3sc4c(c3c(=O)n2c1)CCCC4)N1CCN(c2ccccc2)CC1	active: 31%
Cn1c(OCc2cccnc2)nc2c1c(=O)n(Cc1ccccc1F)c(=O)n2C	inconclusive: 18%
CCN(CC)c1ccc(C(=O)NCc2nc3cccnc3n2CCOC)cc1	inconclusive: 13%
CCOC(=O)c1c(-c2ccc(Cl)cc2)csc1NC1=NS(=O)(=O)c2ccccc21	inactive
CCCc1cnc(C)nc1N1CC(N2CCCCC2C)C1 (stereo not drawn)	inactive
Cn1ncc2c(N3CCC(O)(c4ccccc4)C3)nc(-c3cccnc3)nc21 (stereo not drawn)	inconclusive: 11%
Cn1c(=O)cc(SCC(=O)N2CCN(C(=O)c3ccco3)CC2)c2ccccc21	inactive
CN1C[C@@H](NC(=O)c2ccco2)C[C@H]1c1nc(-c2ccc(F)cc2)no1	inconclusive: 21%
CCn1ccnc1CN(CC1CCN(C2Cc3ccccc3C2)CC1)CC1CCCO1 (stereo not drawn)	inactive
COc1ccc(C2=CC(c3ccccc3)n3ncnc3N2)cc1 (stereo not drawn)	inactive
COc1cc(F)ccc1-c1c(-c2ccccc2)ncn1CCCn1cncn1	inactive
CN(Cc1ccno1)C(=O)CC1COCCN1 (stereo not drawn)	inconclusive: 21%
O=C(CN1C(=O)/C(=C\c2cccc(Cl)c2)Sc2ccccc21)NCC1CCCO1 (stereo not drawn)	inconclusive: 19%
CC(=O)N1CCC2(CC1)CC(=O)c1cc(OCC(=O)NCc3ccc4c(c3)OCO4)ccc1O2	inconclusive: 27%

— PubChem BioAssay AID1259354 (Paczesny and Yang Labs, IUPUI and University of Michigan, 2018)
